Assay results as given in publication PMC10329249.
Results are given in words; binding and its absence hold for the method and conditions named. In cells and extracts the contact can be indirect. Some entries that bind do so weakly or less than the wild type. Sequences can lack the tags named with a protein.

Molecular target: T1, N-acetylglucosaminyltransferase V (MGAT5) (human (endogenous in AGS)) (UniProt Q09328)
T1 sequence: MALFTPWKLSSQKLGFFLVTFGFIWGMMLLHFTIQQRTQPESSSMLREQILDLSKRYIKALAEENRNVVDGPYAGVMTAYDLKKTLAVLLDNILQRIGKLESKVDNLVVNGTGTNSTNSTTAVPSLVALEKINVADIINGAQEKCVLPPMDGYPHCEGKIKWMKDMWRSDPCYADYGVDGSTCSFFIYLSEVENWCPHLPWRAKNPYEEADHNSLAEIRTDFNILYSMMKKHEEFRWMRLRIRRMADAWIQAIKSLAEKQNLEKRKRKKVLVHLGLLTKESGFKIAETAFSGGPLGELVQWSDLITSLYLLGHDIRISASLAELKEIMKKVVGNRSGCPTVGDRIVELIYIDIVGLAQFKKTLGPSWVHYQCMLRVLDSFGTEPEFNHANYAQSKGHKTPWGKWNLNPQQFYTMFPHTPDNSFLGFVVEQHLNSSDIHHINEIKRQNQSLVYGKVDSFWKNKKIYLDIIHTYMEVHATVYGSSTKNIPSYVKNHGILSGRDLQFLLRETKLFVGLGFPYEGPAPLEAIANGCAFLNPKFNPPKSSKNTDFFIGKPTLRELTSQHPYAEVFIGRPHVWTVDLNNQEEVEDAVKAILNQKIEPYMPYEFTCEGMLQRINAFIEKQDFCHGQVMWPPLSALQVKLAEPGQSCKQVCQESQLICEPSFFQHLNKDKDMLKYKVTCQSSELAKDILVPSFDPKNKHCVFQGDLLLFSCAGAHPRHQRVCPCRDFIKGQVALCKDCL
Assay: co-IP; cell lysates pre-cleared with protein A/G agarose beads for 3 hr at 4 °C; incubated with ISLR and MGAT5 antibodies overnight at 4 °C; precipitates analysed by Western blot

binding: binds
B1: immunoglobulin superfamily containing leucine-rich repeat (ISLR) (protein, UniProt O14498 19-428)
chain: CPEPCDCGEKYGFQIADCAYRDLESVPPGFPANVTTLSLSANRLPGLPEGAFREVPLLQSLWLAHNEIRTVAAGALASLSHLKSLDLSHNLISDFAWSDLHNLSALQLLKMDSNELTFIPRDAFRSLRALRSLQLNHNRLHTLAEGTFTPLTALSHLQINENPFDCTCGIVWLKTWALTTAVSIPEQDNIACTSPHVLKGTPLSRLPPLPCSAPSVQLSYQPSQDGAELRPGFVLALHCDVDGQPAPQLHWHIQIPSGIVEITSPNVGTDGRALPGTPVASSQPRFQAFANGSLLIPDFGKLEEGTYSCLATNELGSAESSVDVALATPGEGGEDTLGRRFHGKAVEGKGCYTVDNEVQPSGPEDNVVIIYLSRAGNPEAAVAEGVPGQLPPGLLLLGQSLLLFFFLTSF
